Reference: PubChem BioAssay AID2685 (National Center for Advancing Translational Sciences (NCATS), 2010)
About 2,100 (0.66%) of roughly 320,000 compounds were called active. This list was built around the results that the source calls inconclusive (neither active nor inactive); the mix of calls is not that of the screen. Calls come from the whole dose curve; as a rule, active = well fitted inhibition curve with a large enough effect in the signal ratio, with a control signal flat (not every such curve was filed as active); inconclusive = small, poorly fitted or top-dose-only effect, or effect the other way, or a change in a side signal; inactive = flat fitted curve, though single readings scatter; the % refers to the signal ratio. Potencies beside an inconclusive call are fits to weak or partial responses and may not hold up.

assay: qHTS Assay for Lipid Storage Modulators in Drosophila S3 Cells; details: BODIPY lipid droplet fluorescence, 18-24 h, cells fed with added oleic acid; lipid storage change, negative = inhibition: at 46.1 µM (top of the series) unless noted
Outline: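 Drosophila S3 cells got compounds at several concentrations plus oleic acid (400 uM solution). Laser-scanning cytometry with 488 nm excitation read lipid droplets at 500-530 nm and cells at 575-640 nm. Percent activity was relative to 20 uM Triacsin C.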
% is set by controls: 0 for no effect and ±100 for the full control effect; potency is the fitted concentration of half-maximal effect.

Question: For CC(C)NC(=O)Cn1cnc2c(cnn2-c2ccc(F)cc2)c1=O, which Potency is on record?
Answer: inconclusive: 29.1 µM [activator, single point]

Question: Which lipid storage change, negative = inhibition does the source give for CCCCc1nnc(NC(=O)CSCc2cc(=O)n3c(C)csc3n2)s1 here?
Answer: inconclusive: -24.6%

Question: For CCOc1c(Br)cc(/C=C2\C(=O)N(CCC#N)N=C2C)cc1OC, which lipid storage change, negative = inhibition is on record?
Answer: inconclusive: -18.9%

Question: With N#Cc1ccsc1NC(=O)CN1CCCCCC1 as the compound, how does the lipid storage change, negative = inhibition read?
Answer: inconclusive: -39%

Question: For CCNc1nc(SC(C(C)=O)C(C)=O)nc(N(C)C)n1, which lipid storage change, negative = inhibition is on record?
Answer: inconclusive: 66.8%

Question: Which lipid storage change, negative = inhibition does the source give for Cc1ccc(S(=O)(=O)CC(C)N2CCOCC2)c(S(=O)(=O)CC(C)N2CCOCC2)c1 (centres undefined) here?
Answer: inconclusive: -25%

Question: For CCN(c1ccccc1)S(=O)(=O)c1ccc(C(=O)NNC(=O)c2ccccc2F)cc1, which Potency is on record?
Answer: inconclusive: 29.1 µM [falling, single point]

Question: With CN1C(C(=O)N2CCc3ccccc3C2)=CC(c2ccc(F)cc2)=NS1(=O)=O as the compound, how does the lipid storage change, negative = inhibition read?
Answer: inconclusive: -30.2%

Question: Which lipid storage change, negative = inhibition does the source give for CC(C)Cc1cc(C(=O)Nc2ccc(F)cc2F)no1 here?
Answer: inconclusive: -25.3%

Question: Which lipid storage change, negative = inhibition does the source give for c1cc(-n2cnnn2)ccc1NC1=NCCC1 here?
Answer: inconclusive: -30%

Question: For CC(C)(C)C(=O)Nc1cc(S(=O)(=O)Nc2ccc(Cl)cc2)ccc1Cl, which Potency is on record?
Answer: inconclusive: 29.1 µM [cytotoxic, single point]

Question: Which lipid storage change, negative = inhibition does the source give for O=C(COc1ccc(S(=O)(=O)N2CCCC2)cc1)NCc1ccco1 here?
Answer: inconclusive: 100%

Question: For Cc1[nH]c2ccccc2c1/C=N/NC(=O)C1CC1(c1ccccc1)c1ccccc1 (centres undefined), which “lipid storage change, negative = inhibition” value is on record?
Answer: inactive: -4.99%

Question: Which Potency does the source give for CCOC(=O)N1CCN(C(=O)c2ccc(NC(=O)CC)cc2)CC1 here?
Answer: inconclusive: 23.1 µM [activator, single point]

Question: With Cc1ccc(SCCCCN2CCNCC2)cc1 as the compound, how does the lipid storage change, negative = inhibition read?
Answer: inconclusive: 224%

Question: For CN(C)C(=O)CSc1ccc(S(=O)(=O)N2CCCC2)cn1, which lipid storage change, negative = inhibition is on record?
Answer: inconclusive: -20.1%

Question: For Cc1ccc(Cl)c(NC(=O)CN2CCNC(=O)C2)c1Cl, which lipid storage change, negative = inhibition is on record?
Answer: inconclusive: -38.2%

Question: Which lipid storage change, negative = inhibition does the source give for CC1CN(C(=O)CCC(=O)NCc2ccccc2Cl)c2ccccc2S1 (centres undefined) here?
Answer: inconclusive: -25.6%

Question: With O=C(Nc1ccc(Oc2ccc(Br)cc2)cc1)C1=CC=CN2CCS(=O)(=O)N=C12 as the compound, how does the lipid storage change, negative = inhibition read?
Answer: inconclusive: 67%

Question: Which Potency does the source give for CCOc1ccc(Br)cc1S(=O)(=O)Nc1ccc(C(=O)OCC(=O)Nc2ccc(C#N)cc2)cc1 here?
Answer: inconclusive: 0.13 µM [falling, full curve, poor fit]

Question: With COc1ccc(C(=O)/C=C\c2ccc(NC(=O)c3cccs3)cc2)cc1 as the compound, how does the Potency read?
Answer: inconclusive: 18.4 µM [falling, single point]

Question: Which “outcome” value does the source give for COc1ccc(S(=O)(=O)N2CCC(C(=O)N[C@H](C(=O)N3CCCC3)C(C)C)CC2)cc1 here?
Answer: inactive [at 46.1 µM]

Question: With Cc1ccc(-c2n[nH]c(=O)c3ccccc23)cc1S(=O)(=O)NCCO as the compound, how does the Potency read?
Answer: inconclusive: 20.6 µM [activator, partial curve]

Question: For CSc1nc(Cl)c(Cc2ccc(OC(C)C)cc2)c(N2CCOCC2)n1, which lipid storage change, negative = inhibition is on record?
Answer: inconclusive: -89.2%

Question: With N#Cc1c(NC(=O)C2C3C=CC(C3)C2C(=O)O)sc2c1CCCCC2 (centres undefined) as the compound, how does the lipid storage change, negative = inhibition read?
Answer: inconclusive: -2.34%

Question: For CC(=O)Nc1ccccc1NC(=O)C/C(C)=N/NC(=O)C1CCCCC1, which “outcome” value is on record?
Answer: inactive [at 46.1 µM]

Question: For NC(=O)c1ccsc1NC(=O)CSc1nnc2ccccn12, which lipid storage change, negative = inhibition is on record?
Answer: inconclusive: 33.6%

Question: Which lipid storage change, negative = inhibition does the source give for Cc1ccc(NC(=O)CSc2nc3[nH]ncc3c(=O)[nH]2)c(C)c1 here?
Answer: inconclusive: -9.19%

Question: For COc1ccc(N2CCN(C(=O)c3oc4ccccc4c3C)CC2)cc1, which Potency is on record?
Answer: inconclusive: 0.13 µM [activator, full curve, poor fit]

Question: With O=C1CC(Sc2ccc(Cl)cc2)C(=O)N1Cc1ccncc1 (centres undefined) as the compound, how does the Potency read?
Answer: inconclusive: 11.6 µM [rising, single point]

Question: Which Potency does the source give for O=C(CSc1nnnn1-c1ccc(Cl)cc1)Nc1cccnc1Cl here?
Answer: inconclusive: 13 µM [falling, partial curve, poor fit]

Question: With O=C(c1ccccn1)N1CCN(C(=O)c2ccccn2)CC1 as the compound, how does the lipid storage change, negative = inhibition read?
Answer: inconclusive: -19.9%

Question: For O=C(NC1CCCCC1)C(c1ccco1)N(C(=O)c1csnn1)c1ccc(Cl)cc1 (centres undefined), which lipid storage change, negative = inhibition is on record?
Answer: inconclusive: 2.62%

Question: Which Potency does the source give for Cc1ccc(F)cc1NC(=O)CSc1nc(Nc2ccccc2)nc(N2CCOCC2)n1 here?
Answer: inconclusive: 13 µM [activator, single point]

Question: With CC(Cc1ccccc1)C(=O)N(C)Cc1ccccc1 (centres undefined) as the compound, how does the lipid storage change, negative = inhibition read?
Answer: inconclusive: 7.95%

Question: For CCS(=O)(=O)c1ccc(O)c(NC(=O)COc2ccc(OC)cc2)c1, which lipid storage change, negative = inhibition is on record?
Answer: inconclusive: -7.63%

Question: With CCOC(=O)Cc1csc(NC(=O)NC2(C(F)(F)F)Oc3ccc(Cl)cc3O2)n1 (centres undefined) as the compound, how does the lipid storage change, negative = inhibition read?
Answer: inconclusive: -38.3%

Question: With O=C1CC(c2ccc(F)cc2)CC(O)=C1C=NCCN1CCN(C(=O)Nc2ccccc2)CC1 (centres undefined) as the compound, how does the lipid storage change, negative = inhibition read?
Answer: inconclusive: -7.09% [at 9.22 µM]

Question: Which lipid storage change, negative = inhibition does the source give for OC1(c2ccc(Cl)c(Cl)c2)C[n+]2ccccc2N1Cc1ccccc1 (centres undefined) here?
Answer: inconclusive: 29.2%

Question: For CCc1noc(C)c1C(=O)Nc1nc2c(F)cc(F)cc2s1, which Potency is on record?
Answer: inconclusive: 0.517 µM [activator, full curve, poor fit]

Question: For CC1(C)CC2CC(C)(CN2CC(O)c2ccccc2)C1 (centres undefined), which lipid storage change, negative = inhibition is on record?
Answer: inconclusive: 24.1%

Question: Which lipid storage change, negative = inhibition does the source give for Cc1[nH]c2ccc(Br)cc2c(=O)c1CN1CCOCC1 here?
Answer: inconclusive: 0.869%

Question: For NS(=O)(=O)c1cccnc1Nc1cccc(Cl)c1Cl, which lipid storage change, negative = inhibition is on record?
Answer: inconclusive: 11.9%

Question: For O=c1[nH]c(-c2ccccc2O)nc2c1CCCC2, which Potency is on record?
Answer: inconclusive: 18.4 µM [falling, single point]

Question: With COc1ccc(S(=O)(=O)c2cnc3ccccc3n2)cc1 as the compound, how does the lipid storage change, negative = inhibition read?
Answer: inconclusive: 33.6%

Question: Which Potency does the source give for CCn1c(CNC(=O)c2cccs2)nnc1SCC(=O)Nc1cc(Cl)ccc1C here?
Answer: inconclusive: 1.3 µM [falling, partial curve, poor fit]

Question: With CSc1ncccc1C(=O)Nc1ccc2c(c1)OCO2 as the compound, how does the Potency read?
Answer: inconclusive: 29.1 µM [activator, partial curve, poor fit]

Question: Which Potency does the source give for COc1cccc(C2C=C(c3ccc(Br)s3)Nc3ncnn32)c1OC (centres undefined) here?
Answer: inconclusive: 0.517 µM [rising, full curve]

Question: Which lipid storage change, negative = inhibition does the source give for Cc1cccc(NC(=S)NC(=O)/C=C/c2ccccc2)n1 here?
Answer: inconclusive: -40.2% [at 0.369 µM]
